US20160128986A1, “METHODS AND COMPOSITIONS RELATED TO THE USE OF LOW HLB SURFACTANTS IN THE PRODUCTION OF SYNTHETIC NANOCARRIERS COMPRISING A RAPALOG” (Selecta Biosciences, Inc., priority 2014, published 2016)
At least one compound was matched to its structure with a doubt left.

Tested on: KLH
Experiment: Durable immune tolerance toward model antigen KLH, nanocarriers versus free rapamycin (Example 7)
Assay type: in vivo, mice
Details: treatment together with KLH; 50 μg rapamycin i.v.; KLH challenge days 21, 28, 35; read days 35 and 42

With `CO[C@H]1C[C@@H]2CC[C@@H](C)[C@@](O)(O2)C(=O)C(=O)N2CCCC[C@H]2C(=O)O[C@H]([C@H](C)C[C@@H]2CC[C@@H](O)[C@H](OC)C2)CC(=O)[C@H](C)/C=C(\C)[C@@H](O)[C@@H](OC)C(=O)[C@H](C)C[C@H](C)/C=C/C=C/C=C/1C` [free rapamycin, rapamycin] the anti-KLH antibody response was “delayed response compared to the PBS control group”.
